{"sequences": {"note": "Sequences of proteins named here, by UniProt entry; tags and fusion partners are left off. A change or cut given only in a name is not applied to a line headed by its entry.", "UniProt Q9Y5Y4": "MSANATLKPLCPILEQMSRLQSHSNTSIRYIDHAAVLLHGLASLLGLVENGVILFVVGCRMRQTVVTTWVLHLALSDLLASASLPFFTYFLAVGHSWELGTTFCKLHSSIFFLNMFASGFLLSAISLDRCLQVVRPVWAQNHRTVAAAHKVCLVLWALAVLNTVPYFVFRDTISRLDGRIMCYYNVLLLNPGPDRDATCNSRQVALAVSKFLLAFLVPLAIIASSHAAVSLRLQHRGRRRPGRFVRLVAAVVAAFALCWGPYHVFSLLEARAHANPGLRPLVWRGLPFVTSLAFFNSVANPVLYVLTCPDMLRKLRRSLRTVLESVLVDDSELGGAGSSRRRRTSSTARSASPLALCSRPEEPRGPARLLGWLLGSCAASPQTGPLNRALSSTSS", "UniProt Q9UHX1": "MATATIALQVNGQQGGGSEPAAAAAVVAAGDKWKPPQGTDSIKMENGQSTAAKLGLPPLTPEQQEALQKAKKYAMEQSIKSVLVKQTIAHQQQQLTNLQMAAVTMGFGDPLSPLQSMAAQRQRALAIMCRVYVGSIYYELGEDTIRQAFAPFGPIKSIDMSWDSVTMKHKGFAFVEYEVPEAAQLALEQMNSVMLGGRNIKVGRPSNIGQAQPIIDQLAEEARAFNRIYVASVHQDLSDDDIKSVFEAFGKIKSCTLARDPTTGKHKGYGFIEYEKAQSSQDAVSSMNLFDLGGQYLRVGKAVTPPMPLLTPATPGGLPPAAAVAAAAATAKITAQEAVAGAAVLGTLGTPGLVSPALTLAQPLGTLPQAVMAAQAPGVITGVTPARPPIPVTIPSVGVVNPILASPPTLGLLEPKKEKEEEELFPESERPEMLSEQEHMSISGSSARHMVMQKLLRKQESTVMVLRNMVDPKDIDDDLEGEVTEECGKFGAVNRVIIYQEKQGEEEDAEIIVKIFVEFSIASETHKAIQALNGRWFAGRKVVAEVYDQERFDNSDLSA", "UniProt P28062": "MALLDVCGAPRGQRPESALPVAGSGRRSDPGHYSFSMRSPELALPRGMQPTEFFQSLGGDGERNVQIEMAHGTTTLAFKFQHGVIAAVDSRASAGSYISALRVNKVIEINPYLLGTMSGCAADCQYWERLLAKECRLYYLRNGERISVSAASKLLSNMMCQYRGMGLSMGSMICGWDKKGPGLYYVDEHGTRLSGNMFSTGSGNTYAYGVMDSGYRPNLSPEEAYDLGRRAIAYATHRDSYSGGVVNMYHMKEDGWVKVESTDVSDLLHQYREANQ", "UniProt P07478, whole entry, looked up": "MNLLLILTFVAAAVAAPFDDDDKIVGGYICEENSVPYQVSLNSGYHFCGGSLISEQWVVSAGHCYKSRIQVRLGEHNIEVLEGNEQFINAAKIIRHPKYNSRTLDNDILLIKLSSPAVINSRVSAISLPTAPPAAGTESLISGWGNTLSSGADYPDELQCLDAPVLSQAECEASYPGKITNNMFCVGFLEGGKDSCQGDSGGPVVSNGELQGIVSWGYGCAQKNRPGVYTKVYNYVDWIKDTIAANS", "UniProt P60484": "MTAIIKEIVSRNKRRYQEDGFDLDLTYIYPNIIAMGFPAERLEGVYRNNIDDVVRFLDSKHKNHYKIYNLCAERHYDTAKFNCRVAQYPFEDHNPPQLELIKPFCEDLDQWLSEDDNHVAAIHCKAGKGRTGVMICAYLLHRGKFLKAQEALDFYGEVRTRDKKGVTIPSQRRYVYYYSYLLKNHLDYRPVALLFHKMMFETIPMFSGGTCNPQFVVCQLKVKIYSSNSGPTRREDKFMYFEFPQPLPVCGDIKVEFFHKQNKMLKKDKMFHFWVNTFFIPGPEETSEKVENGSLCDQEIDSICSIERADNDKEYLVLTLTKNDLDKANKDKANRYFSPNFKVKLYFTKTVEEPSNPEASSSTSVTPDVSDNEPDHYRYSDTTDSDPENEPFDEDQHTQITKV", "UniProt Q16651": "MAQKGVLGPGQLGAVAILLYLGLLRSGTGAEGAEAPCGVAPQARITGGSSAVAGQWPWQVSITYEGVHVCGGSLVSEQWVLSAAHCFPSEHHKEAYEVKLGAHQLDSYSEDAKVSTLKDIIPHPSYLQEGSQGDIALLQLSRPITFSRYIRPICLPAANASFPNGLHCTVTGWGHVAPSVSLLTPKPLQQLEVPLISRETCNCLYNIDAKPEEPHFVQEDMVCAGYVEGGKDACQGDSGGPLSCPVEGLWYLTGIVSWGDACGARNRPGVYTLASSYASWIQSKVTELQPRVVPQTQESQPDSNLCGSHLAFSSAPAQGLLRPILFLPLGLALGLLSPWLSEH", "UniProt Q96N64": "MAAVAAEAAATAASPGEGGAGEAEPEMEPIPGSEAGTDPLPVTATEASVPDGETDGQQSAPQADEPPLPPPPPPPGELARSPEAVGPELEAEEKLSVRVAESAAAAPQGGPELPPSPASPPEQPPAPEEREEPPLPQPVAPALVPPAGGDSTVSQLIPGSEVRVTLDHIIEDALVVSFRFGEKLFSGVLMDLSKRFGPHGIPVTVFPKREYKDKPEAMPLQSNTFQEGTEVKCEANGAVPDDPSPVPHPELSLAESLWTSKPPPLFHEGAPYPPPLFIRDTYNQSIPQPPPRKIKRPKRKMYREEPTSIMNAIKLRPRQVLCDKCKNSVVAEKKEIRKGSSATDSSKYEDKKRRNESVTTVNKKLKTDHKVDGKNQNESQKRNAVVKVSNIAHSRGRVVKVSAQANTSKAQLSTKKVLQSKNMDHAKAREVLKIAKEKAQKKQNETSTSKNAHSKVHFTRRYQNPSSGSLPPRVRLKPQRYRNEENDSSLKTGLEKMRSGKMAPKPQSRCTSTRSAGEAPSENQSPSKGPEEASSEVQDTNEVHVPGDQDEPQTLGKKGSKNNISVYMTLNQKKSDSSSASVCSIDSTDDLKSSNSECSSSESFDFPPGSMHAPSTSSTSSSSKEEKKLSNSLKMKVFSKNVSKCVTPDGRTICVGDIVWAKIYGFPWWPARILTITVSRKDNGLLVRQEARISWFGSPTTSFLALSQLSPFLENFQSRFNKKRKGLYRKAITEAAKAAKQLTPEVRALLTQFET", "UniProt Q15008": "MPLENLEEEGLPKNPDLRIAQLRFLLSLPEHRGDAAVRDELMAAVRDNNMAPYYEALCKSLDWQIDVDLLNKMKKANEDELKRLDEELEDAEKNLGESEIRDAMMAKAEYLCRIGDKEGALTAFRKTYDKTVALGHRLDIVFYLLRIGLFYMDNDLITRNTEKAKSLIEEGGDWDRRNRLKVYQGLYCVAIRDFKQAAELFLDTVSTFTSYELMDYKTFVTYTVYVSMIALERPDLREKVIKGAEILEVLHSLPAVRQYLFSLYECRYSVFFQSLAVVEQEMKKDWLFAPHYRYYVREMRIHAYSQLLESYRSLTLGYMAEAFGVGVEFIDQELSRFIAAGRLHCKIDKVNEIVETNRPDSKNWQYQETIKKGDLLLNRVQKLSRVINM", "UniProt Q9BRX8": "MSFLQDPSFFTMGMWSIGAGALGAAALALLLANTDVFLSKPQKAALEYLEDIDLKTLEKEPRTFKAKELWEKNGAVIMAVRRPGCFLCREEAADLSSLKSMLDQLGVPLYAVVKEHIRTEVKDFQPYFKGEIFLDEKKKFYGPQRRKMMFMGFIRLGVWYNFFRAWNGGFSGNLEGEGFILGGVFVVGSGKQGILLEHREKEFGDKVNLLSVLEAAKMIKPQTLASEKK", "UniProt Q16378": "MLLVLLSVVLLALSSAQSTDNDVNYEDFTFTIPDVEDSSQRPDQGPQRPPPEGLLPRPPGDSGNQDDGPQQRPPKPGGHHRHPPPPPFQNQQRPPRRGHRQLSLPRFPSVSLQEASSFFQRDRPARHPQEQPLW", "UniProt Q6NUJ5": "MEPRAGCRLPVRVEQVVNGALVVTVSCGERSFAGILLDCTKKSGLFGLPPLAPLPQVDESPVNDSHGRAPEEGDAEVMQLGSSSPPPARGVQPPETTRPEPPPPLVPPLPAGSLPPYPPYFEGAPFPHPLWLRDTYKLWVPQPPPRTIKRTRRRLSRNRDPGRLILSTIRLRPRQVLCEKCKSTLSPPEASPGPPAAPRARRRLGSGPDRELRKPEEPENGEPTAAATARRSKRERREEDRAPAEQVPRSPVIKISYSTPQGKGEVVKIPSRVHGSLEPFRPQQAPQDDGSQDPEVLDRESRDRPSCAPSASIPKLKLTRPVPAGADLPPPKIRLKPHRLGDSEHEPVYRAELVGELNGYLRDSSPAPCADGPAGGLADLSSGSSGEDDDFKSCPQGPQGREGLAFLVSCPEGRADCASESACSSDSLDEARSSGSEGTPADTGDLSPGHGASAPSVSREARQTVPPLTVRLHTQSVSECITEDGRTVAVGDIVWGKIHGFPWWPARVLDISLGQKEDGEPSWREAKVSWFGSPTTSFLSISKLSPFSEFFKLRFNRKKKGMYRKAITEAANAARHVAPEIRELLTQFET", "UniProt Q86Y79": "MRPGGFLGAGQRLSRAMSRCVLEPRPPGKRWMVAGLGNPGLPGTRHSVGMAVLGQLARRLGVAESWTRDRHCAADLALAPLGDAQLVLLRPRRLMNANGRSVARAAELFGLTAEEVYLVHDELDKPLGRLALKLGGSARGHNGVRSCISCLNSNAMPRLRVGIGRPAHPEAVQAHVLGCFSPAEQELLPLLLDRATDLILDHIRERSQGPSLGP", "UniProt Q9ULL5": "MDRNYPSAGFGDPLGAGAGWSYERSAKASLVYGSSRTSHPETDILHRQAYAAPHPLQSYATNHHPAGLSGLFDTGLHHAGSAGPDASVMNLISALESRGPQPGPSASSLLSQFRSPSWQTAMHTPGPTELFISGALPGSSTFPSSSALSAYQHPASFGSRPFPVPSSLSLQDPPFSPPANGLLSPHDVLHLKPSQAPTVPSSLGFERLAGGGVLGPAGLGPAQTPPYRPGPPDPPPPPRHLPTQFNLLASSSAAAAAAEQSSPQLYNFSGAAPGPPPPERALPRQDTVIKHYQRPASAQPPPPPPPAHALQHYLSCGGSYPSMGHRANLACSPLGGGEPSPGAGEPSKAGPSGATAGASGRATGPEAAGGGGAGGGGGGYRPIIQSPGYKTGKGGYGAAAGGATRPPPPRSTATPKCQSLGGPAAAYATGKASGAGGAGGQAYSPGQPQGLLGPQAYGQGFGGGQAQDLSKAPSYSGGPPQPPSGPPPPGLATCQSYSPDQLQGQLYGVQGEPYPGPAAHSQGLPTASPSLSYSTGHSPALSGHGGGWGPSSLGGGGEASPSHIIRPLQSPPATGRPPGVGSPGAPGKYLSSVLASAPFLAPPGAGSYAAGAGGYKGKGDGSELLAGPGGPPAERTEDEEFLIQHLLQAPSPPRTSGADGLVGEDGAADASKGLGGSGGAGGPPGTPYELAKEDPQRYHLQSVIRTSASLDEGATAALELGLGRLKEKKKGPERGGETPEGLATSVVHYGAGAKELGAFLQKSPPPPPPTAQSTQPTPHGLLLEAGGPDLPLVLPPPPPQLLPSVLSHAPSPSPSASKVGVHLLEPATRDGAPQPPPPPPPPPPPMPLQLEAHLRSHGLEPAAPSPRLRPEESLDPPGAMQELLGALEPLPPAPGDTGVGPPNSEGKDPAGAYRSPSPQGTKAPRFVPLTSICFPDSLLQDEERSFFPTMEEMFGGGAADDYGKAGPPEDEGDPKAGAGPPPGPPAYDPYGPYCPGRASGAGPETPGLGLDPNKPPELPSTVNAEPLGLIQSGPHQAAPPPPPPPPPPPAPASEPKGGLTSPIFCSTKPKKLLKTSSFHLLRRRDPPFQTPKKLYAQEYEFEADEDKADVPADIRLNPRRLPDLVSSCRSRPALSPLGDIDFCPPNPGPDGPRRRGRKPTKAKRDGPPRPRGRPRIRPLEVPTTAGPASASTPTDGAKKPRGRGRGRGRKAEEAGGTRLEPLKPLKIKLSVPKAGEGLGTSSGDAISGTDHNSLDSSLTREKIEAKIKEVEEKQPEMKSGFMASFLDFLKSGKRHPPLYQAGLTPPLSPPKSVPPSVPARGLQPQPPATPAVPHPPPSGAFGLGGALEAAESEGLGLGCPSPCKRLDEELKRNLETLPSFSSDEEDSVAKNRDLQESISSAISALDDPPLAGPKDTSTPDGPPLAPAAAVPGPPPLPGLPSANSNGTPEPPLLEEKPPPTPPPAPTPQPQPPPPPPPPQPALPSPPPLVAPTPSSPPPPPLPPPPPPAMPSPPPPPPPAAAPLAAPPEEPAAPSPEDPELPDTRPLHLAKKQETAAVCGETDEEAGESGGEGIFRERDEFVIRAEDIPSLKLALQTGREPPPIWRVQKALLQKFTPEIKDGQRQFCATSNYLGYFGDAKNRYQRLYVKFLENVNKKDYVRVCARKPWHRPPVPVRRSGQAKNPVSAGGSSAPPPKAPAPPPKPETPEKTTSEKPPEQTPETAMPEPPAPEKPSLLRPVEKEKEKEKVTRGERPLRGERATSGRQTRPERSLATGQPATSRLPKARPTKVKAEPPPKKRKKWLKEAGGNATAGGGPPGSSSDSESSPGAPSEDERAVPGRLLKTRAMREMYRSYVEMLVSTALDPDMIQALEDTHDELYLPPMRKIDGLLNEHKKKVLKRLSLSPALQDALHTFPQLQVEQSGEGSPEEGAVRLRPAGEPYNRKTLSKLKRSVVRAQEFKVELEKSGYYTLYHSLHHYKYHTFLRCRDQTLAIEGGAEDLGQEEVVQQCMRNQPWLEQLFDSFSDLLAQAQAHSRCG"}, "source": "the supplement of paper PMC10849652", "note": "The list shows a part of the results."}
{"compound": "c1ccc([C@@H]2C[C@H]2NC2CCNCC2)cc1", "experiment": "log2 fold change, soluble protein after heating vs DMSO (PISA); higher = thermal stabilisation; K562 lysate, 10 uM; active = over 0.2 and 3.5 SD of the protein, either way, in both replicates (recomputed)", "procedure,_shortened": "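Quantification was by TMTpro 16plex LC-MS/MS with equalised channel sums, applied to the supernatant after 21,000xg for 90 min. Samples were crude K562 extract at 1 mg/mL protein in PBS pH 7.4 with 1 mM MgCl2, treated with 10 μM compound for 30 min, heated for 3 min across 48°C-58°C, pooled and brought to 0.5% NP-40 at 4°C. Values are log-two fold changes in thermal stability relative to solvent controls, from duplicates.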"}
{"target": "PTPN11 (UniProt Q06124)", "log2 fold change": "inactive: -0.004"}
{"target": "PRSS50 (UniProt Q9UI38)", "log2 fold change": "inactive: 0.129"}
{"target": "PSMF1 (UniProt Q5QPM7)", "log2 fold change": "inactive: 0.085"}
{"target": "PTGDR2 (UniProt Q9Y5Y4)", "log2 fold change": "inactive: 0.082"}
{"target": "PUM2 (UniProt C9JW01)", "log2 fold change": "inactive: -0.112"}
{"target": "PUF60 isoform 2 (UniProt Q9UHX1)", "log2 fold change": "inactive: 0.238"}
{"target": "PSMB8 (UniProt P28062)", "log2 fold change": "inactive: -0.039"}
{"target": "PTPRF (UniProt P10586)", "log2 fold change": "inactive: 0.008"}
{"target": "PTOV1 (UniProt Q86YD1)", "log2 fold change": "inactive: 0.074"}
{"target": "PRSS2 (UniProt P07478)", "log2 fold change": "inactive: -0.019"}
{"target": "PTEN isoform 2 (UniProt P60484)", "log2 fold change": "inactive: -0.237"}
{"target": "PSMA7 (UniProt H0Y586)", "log2 fold change": "inactive: 0.152"}
{"target": "PRSS8 (UniProt Q16651)", "log2 fold change": "inactive: 0.012"}
{"target": "PWWP2A (UniProt Q96N64)", "log2 fold change": "inactive: 0.061"}
{"target": "PSMB2, A0A087WVV1", "log2 fold change": "inactive: -0.347"}
{"target": "PSMD6 (UniProt Q15008)", "log2 fold change": "inactive: -0.363"}
{"target": "PRXL2A (UniProt Q9BRX8)", "log2 fold change": "inactive: -0.137"}
{"target": "PSTK (UniProt H7BYY4)", "log2 fold change": "inactive: -0.055"}
{"target": "PSEN2 (UniProt P49810)", "log2 fold change": "inactive: -0.013"}
{"target": "PRR4 (UniProt Q16378)", "log2 fold change": "inactive: -0.269"}
{"target": "PWWP2B (UniProt Q6NUJ5)", "log2 fold change": "inactive: 0.035"}
{"target": "PTRH1 (UniProt Q86Y79)", "log2 fold change": "inactive: 0.193"}
{"target": "PRR12 (UniProt Q9ULL5)", "log2 fold change": "inactive: 0.3"}
{"target": "PSIP1 (UniProt V9GYT7)", "log2 fold change": "inactive: 0"}
